For 28 targets, log2 fold change results are on record in the supplement of paper PMC12819154, “High-throughput peptide-centric local stability assay extends protein–ligand identification to membrane proteins, tissues and bacteria” (Nature Structural & Molecular Biology, 2025).

Chains of the proteins cited; added tags and fusions are not shown. Lines headed by an entry give the natural chain unless they say otherwise; changes in a name come on top.
UniProt Q2M2Z5: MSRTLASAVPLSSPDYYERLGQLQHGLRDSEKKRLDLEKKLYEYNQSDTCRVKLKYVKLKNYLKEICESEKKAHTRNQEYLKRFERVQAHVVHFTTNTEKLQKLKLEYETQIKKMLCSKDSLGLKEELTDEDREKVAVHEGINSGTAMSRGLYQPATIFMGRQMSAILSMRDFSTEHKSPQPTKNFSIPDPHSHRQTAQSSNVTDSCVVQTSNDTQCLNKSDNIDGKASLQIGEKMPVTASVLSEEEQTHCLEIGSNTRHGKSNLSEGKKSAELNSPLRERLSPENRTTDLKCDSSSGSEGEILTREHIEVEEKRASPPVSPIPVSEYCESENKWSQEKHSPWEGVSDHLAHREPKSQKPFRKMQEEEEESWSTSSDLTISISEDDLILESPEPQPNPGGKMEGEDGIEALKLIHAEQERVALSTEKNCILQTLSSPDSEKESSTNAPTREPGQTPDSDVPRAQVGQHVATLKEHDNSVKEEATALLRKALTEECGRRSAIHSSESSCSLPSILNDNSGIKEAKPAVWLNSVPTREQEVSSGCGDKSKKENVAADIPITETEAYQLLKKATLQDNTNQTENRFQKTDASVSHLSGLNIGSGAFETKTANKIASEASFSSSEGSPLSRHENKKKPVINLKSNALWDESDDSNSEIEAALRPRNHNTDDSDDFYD
UniProt Q15907: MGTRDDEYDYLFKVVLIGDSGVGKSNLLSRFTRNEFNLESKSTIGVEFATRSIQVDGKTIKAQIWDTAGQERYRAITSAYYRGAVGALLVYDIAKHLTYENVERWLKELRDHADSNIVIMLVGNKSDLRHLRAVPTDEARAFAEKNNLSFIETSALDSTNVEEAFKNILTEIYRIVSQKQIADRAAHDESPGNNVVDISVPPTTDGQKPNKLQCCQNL
UniProt Q16850: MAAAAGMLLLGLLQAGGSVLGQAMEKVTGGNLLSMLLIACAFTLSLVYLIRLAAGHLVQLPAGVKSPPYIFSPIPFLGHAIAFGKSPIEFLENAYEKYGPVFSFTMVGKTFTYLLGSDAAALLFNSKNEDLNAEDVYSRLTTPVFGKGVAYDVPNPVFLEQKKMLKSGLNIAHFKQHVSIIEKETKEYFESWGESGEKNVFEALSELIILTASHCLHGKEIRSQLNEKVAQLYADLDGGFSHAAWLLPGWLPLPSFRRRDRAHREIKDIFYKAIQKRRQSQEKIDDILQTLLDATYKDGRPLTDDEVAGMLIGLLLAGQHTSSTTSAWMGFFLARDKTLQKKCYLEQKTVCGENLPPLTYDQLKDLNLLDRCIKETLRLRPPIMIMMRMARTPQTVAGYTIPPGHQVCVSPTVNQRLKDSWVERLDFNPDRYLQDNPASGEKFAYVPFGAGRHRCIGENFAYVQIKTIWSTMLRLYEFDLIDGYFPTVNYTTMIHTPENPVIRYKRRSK
UniProt Q15431: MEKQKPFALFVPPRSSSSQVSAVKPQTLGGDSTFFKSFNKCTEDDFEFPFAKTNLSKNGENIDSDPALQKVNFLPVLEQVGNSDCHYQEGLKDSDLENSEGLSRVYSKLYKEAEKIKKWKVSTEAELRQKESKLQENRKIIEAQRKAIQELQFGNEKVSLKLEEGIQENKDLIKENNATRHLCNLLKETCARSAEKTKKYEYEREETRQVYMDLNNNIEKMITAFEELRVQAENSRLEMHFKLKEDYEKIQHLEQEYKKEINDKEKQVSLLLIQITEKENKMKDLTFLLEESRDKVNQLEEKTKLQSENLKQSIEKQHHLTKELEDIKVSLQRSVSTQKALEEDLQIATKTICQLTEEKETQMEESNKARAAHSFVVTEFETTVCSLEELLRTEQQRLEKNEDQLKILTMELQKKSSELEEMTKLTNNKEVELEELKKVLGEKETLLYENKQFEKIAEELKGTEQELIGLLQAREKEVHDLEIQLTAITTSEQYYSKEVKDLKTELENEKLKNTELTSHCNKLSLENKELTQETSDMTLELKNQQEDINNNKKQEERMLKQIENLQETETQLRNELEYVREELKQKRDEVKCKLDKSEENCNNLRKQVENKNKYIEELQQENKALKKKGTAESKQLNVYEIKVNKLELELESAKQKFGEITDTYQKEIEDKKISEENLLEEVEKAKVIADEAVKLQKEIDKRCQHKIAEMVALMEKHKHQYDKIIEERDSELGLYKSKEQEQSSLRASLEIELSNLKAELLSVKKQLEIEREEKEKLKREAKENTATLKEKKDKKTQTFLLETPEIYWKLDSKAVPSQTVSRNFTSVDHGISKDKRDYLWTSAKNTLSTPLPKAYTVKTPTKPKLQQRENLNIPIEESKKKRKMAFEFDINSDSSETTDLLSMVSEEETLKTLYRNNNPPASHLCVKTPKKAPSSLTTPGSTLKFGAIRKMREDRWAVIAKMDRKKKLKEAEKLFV
UniProt Q16698: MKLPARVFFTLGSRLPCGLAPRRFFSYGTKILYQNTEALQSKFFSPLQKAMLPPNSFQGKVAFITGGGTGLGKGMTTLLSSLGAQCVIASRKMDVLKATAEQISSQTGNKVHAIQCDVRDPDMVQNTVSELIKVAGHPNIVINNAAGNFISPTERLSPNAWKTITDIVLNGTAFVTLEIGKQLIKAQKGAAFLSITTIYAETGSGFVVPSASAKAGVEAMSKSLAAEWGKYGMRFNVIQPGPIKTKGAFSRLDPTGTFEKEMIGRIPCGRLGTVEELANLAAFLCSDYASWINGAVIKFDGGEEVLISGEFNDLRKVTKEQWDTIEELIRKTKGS
UniProt Q16644, whole entry, looked up: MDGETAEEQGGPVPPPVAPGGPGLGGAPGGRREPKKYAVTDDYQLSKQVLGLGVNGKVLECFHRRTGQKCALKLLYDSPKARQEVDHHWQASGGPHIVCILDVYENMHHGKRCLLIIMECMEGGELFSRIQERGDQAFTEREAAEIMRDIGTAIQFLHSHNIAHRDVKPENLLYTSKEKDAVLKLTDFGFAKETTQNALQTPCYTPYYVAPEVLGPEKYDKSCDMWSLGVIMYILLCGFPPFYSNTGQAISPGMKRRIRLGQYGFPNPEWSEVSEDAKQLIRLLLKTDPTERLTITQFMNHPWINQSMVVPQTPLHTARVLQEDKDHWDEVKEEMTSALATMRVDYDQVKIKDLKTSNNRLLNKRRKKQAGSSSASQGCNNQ
UniProt Q2TAZ0: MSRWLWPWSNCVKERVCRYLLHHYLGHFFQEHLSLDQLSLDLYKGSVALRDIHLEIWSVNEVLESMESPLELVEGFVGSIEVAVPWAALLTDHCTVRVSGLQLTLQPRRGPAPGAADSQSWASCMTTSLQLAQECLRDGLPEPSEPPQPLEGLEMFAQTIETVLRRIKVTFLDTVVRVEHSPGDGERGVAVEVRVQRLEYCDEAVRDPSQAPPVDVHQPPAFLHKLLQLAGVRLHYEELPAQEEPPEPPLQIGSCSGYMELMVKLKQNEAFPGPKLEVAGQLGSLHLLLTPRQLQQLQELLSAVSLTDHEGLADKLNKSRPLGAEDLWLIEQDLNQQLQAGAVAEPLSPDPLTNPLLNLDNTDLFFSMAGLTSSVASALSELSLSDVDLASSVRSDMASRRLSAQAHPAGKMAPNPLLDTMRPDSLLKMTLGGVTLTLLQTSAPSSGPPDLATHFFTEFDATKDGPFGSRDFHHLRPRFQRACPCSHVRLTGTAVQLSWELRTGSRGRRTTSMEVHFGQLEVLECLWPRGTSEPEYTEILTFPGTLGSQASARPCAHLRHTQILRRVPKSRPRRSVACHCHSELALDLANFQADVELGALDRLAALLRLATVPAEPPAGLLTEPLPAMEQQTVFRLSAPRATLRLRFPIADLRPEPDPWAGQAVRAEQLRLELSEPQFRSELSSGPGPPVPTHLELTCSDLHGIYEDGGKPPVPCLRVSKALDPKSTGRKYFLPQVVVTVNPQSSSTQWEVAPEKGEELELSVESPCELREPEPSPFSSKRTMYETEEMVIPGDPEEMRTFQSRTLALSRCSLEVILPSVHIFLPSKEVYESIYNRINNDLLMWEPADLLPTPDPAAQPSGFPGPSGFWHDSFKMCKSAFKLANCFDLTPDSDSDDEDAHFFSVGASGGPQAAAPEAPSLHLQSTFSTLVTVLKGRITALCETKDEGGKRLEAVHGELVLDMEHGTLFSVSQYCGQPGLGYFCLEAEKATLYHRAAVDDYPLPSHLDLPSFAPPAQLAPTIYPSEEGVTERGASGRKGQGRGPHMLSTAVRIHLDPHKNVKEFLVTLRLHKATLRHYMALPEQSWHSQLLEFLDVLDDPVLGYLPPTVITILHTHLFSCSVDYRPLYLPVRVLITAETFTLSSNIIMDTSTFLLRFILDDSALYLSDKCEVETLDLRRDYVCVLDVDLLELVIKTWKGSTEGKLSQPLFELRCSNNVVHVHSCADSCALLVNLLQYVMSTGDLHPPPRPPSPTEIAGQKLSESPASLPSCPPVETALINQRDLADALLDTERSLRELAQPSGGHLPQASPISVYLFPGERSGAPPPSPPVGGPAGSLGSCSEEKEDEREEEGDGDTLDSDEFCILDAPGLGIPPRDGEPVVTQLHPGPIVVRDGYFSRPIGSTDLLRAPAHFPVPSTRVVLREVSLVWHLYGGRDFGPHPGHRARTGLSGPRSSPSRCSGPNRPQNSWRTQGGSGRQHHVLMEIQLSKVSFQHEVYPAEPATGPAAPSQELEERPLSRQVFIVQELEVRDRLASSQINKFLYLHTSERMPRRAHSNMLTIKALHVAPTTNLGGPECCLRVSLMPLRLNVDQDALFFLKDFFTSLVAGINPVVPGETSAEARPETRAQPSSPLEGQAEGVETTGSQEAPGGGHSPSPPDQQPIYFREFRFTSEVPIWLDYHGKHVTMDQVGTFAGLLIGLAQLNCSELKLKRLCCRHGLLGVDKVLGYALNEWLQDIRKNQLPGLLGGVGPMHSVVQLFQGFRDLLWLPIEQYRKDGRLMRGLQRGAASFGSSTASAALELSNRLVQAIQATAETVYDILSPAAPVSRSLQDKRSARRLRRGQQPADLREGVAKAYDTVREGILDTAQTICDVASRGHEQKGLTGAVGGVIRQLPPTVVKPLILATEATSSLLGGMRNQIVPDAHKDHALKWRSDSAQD
UniProt Q15291, whole entry: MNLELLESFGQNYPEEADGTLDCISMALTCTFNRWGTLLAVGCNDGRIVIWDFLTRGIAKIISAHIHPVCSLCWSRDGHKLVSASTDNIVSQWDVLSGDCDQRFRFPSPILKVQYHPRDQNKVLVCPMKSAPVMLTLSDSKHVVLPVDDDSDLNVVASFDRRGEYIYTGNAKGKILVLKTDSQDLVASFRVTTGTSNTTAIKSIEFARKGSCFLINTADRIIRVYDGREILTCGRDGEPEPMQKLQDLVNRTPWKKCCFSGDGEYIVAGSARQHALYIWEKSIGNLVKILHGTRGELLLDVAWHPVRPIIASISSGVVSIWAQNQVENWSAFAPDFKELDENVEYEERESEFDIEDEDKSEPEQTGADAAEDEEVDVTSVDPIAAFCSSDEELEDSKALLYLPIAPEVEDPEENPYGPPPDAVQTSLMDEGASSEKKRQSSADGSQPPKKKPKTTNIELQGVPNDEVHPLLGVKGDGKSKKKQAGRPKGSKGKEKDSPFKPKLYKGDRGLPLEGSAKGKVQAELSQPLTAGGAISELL
UniProt Q15544, whole entry: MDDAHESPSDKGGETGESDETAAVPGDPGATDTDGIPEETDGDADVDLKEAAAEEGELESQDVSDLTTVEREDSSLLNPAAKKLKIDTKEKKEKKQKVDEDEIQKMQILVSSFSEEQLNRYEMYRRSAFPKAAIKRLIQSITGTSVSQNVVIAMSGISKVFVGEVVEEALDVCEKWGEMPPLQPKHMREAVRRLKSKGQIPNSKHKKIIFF
UniProt Q16854: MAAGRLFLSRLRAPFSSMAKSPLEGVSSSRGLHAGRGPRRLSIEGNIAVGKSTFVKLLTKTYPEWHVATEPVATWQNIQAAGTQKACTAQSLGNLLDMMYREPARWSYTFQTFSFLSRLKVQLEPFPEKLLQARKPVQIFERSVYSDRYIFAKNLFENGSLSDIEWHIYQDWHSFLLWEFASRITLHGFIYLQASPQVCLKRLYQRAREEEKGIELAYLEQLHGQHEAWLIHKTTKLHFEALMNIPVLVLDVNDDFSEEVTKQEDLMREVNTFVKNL
UniProt Q15428: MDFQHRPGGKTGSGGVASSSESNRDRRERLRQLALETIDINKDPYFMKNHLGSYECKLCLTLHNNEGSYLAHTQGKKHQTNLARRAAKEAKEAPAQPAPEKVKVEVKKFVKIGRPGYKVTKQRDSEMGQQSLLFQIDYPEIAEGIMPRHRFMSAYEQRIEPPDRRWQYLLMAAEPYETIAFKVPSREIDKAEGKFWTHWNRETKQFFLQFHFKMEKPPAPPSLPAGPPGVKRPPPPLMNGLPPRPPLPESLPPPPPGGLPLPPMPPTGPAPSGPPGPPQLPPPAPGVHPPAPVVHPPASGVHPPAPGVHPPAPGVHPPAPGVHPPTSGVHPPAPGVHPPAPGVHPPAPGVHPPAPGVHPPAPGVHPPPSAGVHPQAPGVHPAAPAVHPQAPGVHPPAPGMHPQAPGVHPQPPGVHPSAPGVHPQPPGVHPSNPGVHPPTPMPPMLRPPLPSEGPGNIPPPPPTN

The list shows a part of the results. Most values lie at the level of the controls, where differences are scatter.

Compound in this assay: CN[C@@H]1C[C@H]2O[C@@](C)([C@@H]1OC)n1c3ccccc3c3c4c(c5c6ccccc6n2c5c31)C(=O)NC4 [staurosporine]
Put plainly: log2 fold change of tryptic peptide abundance, ligand vs vehicle (limited proteolysis) (log2 ratio); higher = more trypsin-susceptible (destabilized). The following applies: ligand concentration: 20 uM; sample: K562 cleared lysate; digestion: 4 min, 22 C (HT-PELSA RT4min, Orbitrap Astral).
For the target “KIZ (peptide sequence: EHDNSVKEEATALLR, peptide start residue: 474) (UniProt Q2M2Z5)”, the log2 fold change is 0.747.
Consider “RAB11B (peptide sequence: NILTEIYR, peptide start residue: 167) (UniProt Q15907)”, for which the log2 fold change turned out to be 0.235.
To “UniProt Q16584 (peptide sequence: ITVQASPGLDR, peptide start residue: 502)” belongs -0.287.
The result for “CYP51A1 (peptide sequence: FAYVPFGAGR, peptide start residue: 443) (UniProt Q16850)” reads -0.277.
With “UniProt Q15431 (peptide sequence: LQKEIDKR, peptide start residue: 695)”, the log2 fold change is -0.0261.
Turning to “DECR1 (peptide sequence: VHAIQCDVRDPDMVQNTVSELIK, peptide start residue: 111) (UniProt Q16698)”, the log2 fold change came to 0.448.
The result for “ACAP2 (peptide sequence: ASYEKNLPK, peptide start residue: 613) (UniProt Q15057)” reads 0.826; that for “MEA1 (peptide sequence: EISDAQWEDVVQK, peptide start residue: 161) (UniProt Q16626)”, -0.135; that for “EIF4H (peptide sequence: EEVVQKEQE, peptide start residue: 240) (UniProt Q15056)”, -0.112.
To “MAPKAPK3 (peptide sequence: LTDFGFAK, peptide start residue: 205) (UniProt Q16644)” belongs -0.638; to “FUT11 (peptide sequence: LWRPMHLGAVPVYR, peptide start residue: 293) (UniProt Q495W5)”, -0.721.
To “UniProt Q16637 (peptide sequence: SPGNKSDNIKPK, peptide start residue: 175)” belongs -0.526; to “TAF1A (peptide sequence: LGSEILFYHPK, peptide start residue: 102) (UniProt Q15573)”, -0.587.
Take “E2F4 (peptide sequence: ELSEIFDPTR, peptide start residue: 351) (UniProt Q16254)”: the log2 fold change amounted to 0.722.
To “SHROOM1 (peptide sequence: SRAPAPGTAGR, peptide start residue: 201) (UniProt Q2M3G4)” belongs 0.579.
To “MAPK14 (peptide sequence: DLKPSNLAVNEDCELK, peptide start residue: 150) (UniProt Q16539)” belongs -0.301; to “VMA21 (peptide sequence: AALNALQPPEFR, peptide start residue: 7) (UniProt Q3ZAQ7)”, 0.131; to “HAGH (peptide sequence: HVEPGNAAIR, peptide start residue: 233) (UniProt Q16775)”, 0.0986.
Take “ATG2A (peptide sequence: RGQQPADLR, peptide start residue: 1840) (UniProt Q2TAZ0)”: the log2 fold change was 0.376.
To “TRMT5 (peptide sequence: YNLELTYEHFKSEEILR, peptide start residue: 171) (UniProt Q32P41)” belongs 0.425.
To “RBBP5 (peptide sequence: TTNIELQGVPNDEVHPLLGVKGDGK, peptide start residue: 454) (UniProt Q15291)” belongs -0.277.
The result for “PEA15 (peptide sequence: DIIRQPSEEEIIK, peptide start residue: 110) (UniProt Q15121)” reads -0.111.
Regarding “SMAD2 (peptide sequence: AIENCEYAFNLKK, peptide start residue: 145) (UniProt Q15796)”, the log2 fold change was -0.212.
The result for “TAF11 (peptide sequence: EDSSLLNPAAK, peptide start residue: 72) (UniProt Q15544)” reads 0.125; that for “DGUOK (peptide sequence: SPLEGVSSSR, peptide start residue: 21) (UniProt Q16854)”, 0.113.
The result for “SF3A2 (peptide sequence: EAPAQPAPEKVKVEVK, peptide start residue: 92) (UniProt Q15428)” reads -0.265; that for “UniProt Q3SXZ3 (peptide sequence: DVMLENYR, peptide start residue: 35)”, -0.00335; that for “TRIP13 (peptide sequence: IDVAFVDR, peptide start residue: 305) (UniProt Q15645)”, 0.0907.
